# Some entries share one result that the patent states for a list of compounds.
# Test system: L. serricata (insect; blowfly) larvae
# Assay: Blowfly larvae on filter paper discs with test compound in dried blood bovine serum, activity assessed at 24 hours
# Type: in vivo, Lucilica sericata
# Conditions: newly emerged blowfly larvae, 0.5 ppm, feeding and contact, four replicates
row,SMILES,mortality
1,"CNC(=O)c1cc(C#N)cc(C)c1NC(=O)c1cc(Br)nn1-c1ncccc1Cl [Test compound, 3-bromo-1-(3-chloro-2-pyridinyl)-N-[4-cyano-2-methyl-6-[(methylamino)-carbonyl]phenyl]-1H-pyrazole-5-carboxamide]",90-100%
2,"N#Cc1nn(-c2c(Cl)cc(C(F)(F)F)cc2Cl)c(N)c1[S+]([O-])C(F)(F)F (stereo not drawn) [Fipronil, (.+−.)-5-amino-1-(2,6-dichloro-α,α,α-triflu-oro-p-tolyl)-4-trifluoromethyl-sulphinylpyrazol-3-carbonitrile, reference compound]",90-100%

# From patent US20110015153A1, “FLY CONTROL METHOD” (E.I. DU PONT DE NEMOURS AND COMPANY, priority 2007, published 2011)
